Key:
[1] = tested on: soybean explants; experiment: Soybean explant feeding with 50 mM free cyclitols for one week, soluble carbohydrates in mature seeds; type: in vivo, Glycine max (L.) Merrill cv. Chippewa 64; conditions: axis and cotyledon tissue of mature seeds
[2] = tested on: buckwheat embryos; experiment: Soluble carbohydrates in buckwheat embryos from seeds matured at 15, 22 or 30° C.; type: in vivo, Fagopyrum esculentum Moench
[3] = tested on: immature soybean embryos; experiment: Embryo feeding experiments: cyclitols fed to immature soybean embryos, precocious maturation by slow drying, soluble carbohydrates in axis and cotyledons; type: in vivo, Glycine max (L.) Merrill
[4] = tested on: soybean explants; experiment: Soybean explant feeding 3 days with 50 mM cyclitol in 1% sucrose, slow drying time course, soluble carbohydrates in axis, cotyledon, seed coat and leaf
[5] = 3 days transport of sucrose (1%) and D-chiro-inositol (50 mM), after 2 days slow drying, Rep 1
[6] = 3 days transport of sucrose (1%) and D-chiro-inositol (50 mM), after 2 days slow drying, Rep 2
[7] = 3 days transport of sucrose (1%) and D-chiro-inositol (50 mM), after 4 days slow drying, Rep 1
[8] = 3 days transport of sucrose (1%) and D-chiro-inositol (50 mM), after 4 days slow drying, Rep 2
[9] = 3 days transport of sucrose (1%) and D-chiro-inositol (50 mM), after 14 days slow drying, Rep 1
[10] = 3 days transport of sucrose (1%) and D-chiro-inositol (50 mM), after 14 days slow drying, Rep 2
[11] = 3 days transport of sucrose (1%) and D-chiro-inositol (50 mM), before slow drying, Rep 1
[12] = 3 days transport of sucrose (1%) and D-chiro-inositol (50 mM), before slow drying, Rep 2
[13] = 3 days transport of sucrose (1%) and D-pinitol (50 mM), after 2 days slow drying, Rep 1
[14] = 3 days transport of sucrose (1%) and D-pinitol (50 mM), after 2 days slow drying, Rep 2
[15] = 3 days transport of sucrose (1%) and D-pinitol (50 mM), after 4 days slow drying, Rep 1
[16] = 3 days transport of sucrose (1%) and D-pinitol (50 mM), after 4 days slow drying, Rep 2
[17] = 3 days transport of sucrose (1%) and D-pinitol (50 mM), after 14 days slow drying, Rep 1

OC[C@H]1O[C@H](OC[C@H]2O[C@H](O[C@]3(CO)O[C@H](CO)[C@@H](O)[C@@H]3O)[C@H](O)[C@@H](O)[C@@H]2O)[C@H](O)[C@@H](O)[C@H]1O [Raffinose, raffinose]
change in concentration after feeding 50 mM myo-inositol to explants [1]: No significant changes
Minor soluble carbohydrates in buckwheat embryos ([2]; maturation temperature 15° C., 16 DAP): 0 μg/embryo
Minor soluble carbohydrates in buckwheat embryos ([2]; maturation temperature 15° C., 20 DAP): 0 μg/embryo
Minor soluble carbohydrates in buckwheat embryos ([2]; maturation temperature 15° C., 28 DAP): 0 μg/embryo
Minor soluble carbohydrates in buckwheat embryos ([2]; maturation temperature 15° C., 28 DAP + 2 wk 12% RH): 0 μg/embryo
Minor soluble carbohydrates in buckwheat embryos ([2]; maturation temperature 22° C., 20 DAP): 0 μg/embryo
Minor soluble carbohydrates in buckwheat embryos ([2]; maturation temperature 22° C., 28 DAP): 0.78 ± 0.45 μg/embryo
Minor soluble carbohydrates in buckwheat embryos ([2]; maturation temperature 30° C., 20 DAP): 0.70 ± 0.12 μg/embryo
Minor soluble carbohydrates in buckwheat embryos ([2]; maturation temperature 30° C., 28 DAP): 1.21 ± 0.95 μg/embryo
change in concentration after feeding myo-inositol ([3]; axis and cotyledon tissues, myo-inositol up to 50 mM, after precocious maturation): little change
increase in concentration after feeding D-chiro-inositol ([3]; axis and cotyledons, concentration series, 14 days precocious maturation): did not increase
Accumulation of soluble carbohydrates in soybean axis [4, 5]: 2.57 μg/axis
Accumulation of soluble carbohydrates in soybean cotyledon [4, 5]: 21.08 μg/cotyledon
Accumulation of soluble carbohydrates in soybean seed coat [4, 5]: 0 μg/seed coat
Accumulation of soluble carbohydrates in soybean axis [4, 6]: 3.37 μg/axis
Accumulation of soluble carbohydrates in soybean cotyledon [4, 6]: 15.23 μg/cotyledon
Accumulation of soluble carbohydrates in soybean seed coat [4, 6]: 0 μg/seed coat
Accumulation of soluble carbohydrates in soybean axis [4, 7]: 2.61 μg/axis
Accumulation of soluble carbohydrates in soybean cotyledon [4, 7]: 122.16 μg/cotyledon
Accumulation of soluble carbohydrates in soybean seed coat [4, 7]: 0.36 μg/seed coat
Accumulation of soluble carbohydrates in soybean axis [4, 8]: 3.24 μg/axis
Accumulation of soluble carbohydrates in soybean cotyledon [4, 8]: 124.39 μg/cotyledon
Accumulation of soluble carbohydrates in soybean seed coat [4, 8]: 0.18 μg/seed coat
Accumulation of soluble carbohydrates in soybean axis [4, 9]: 6.68 μg/axis
Accumulation of soluble carbohydrates in soybean cotyledon [4, 9]: 198.46 μg/cotyledon
Accumulation of soluble carbohydrates in soybean seed coat [4, 9]: 0 μg/seed coat
Accumulation of soluble carbohydrates in soybean axis [4, 10]: 5.73 μg/axis
Accumulation of soluble carbohydrates in soybean cotyledon [4, 10]: 211.32 μg/cotyledon
Accumulation of soluble carbohydrates in soybean seed coat [4, 10]: 10.08 μg/seed coat
Accumulation of soluble carbohydrates in soybean axis [4, 11]: 0.23 μg/axis
Accumulation of soluble carbohydrates in soybean cotyledon [4, 11]: 7.28 μg/cotyledon
Accumulation of soluble carbohydrates in soybean axis [4, 12]: 0 μg/axis
Accumulation of soluble carbohydrates in soybean cotyledon [4, 12]: 10.73 μg/cotyledon
Accumulation of soluble carbohydrates in soybean axis [4, 13]: 6.33 μg/axis
Accumulation of soluble carbohydrates in soybean cotyledon [4, 13]: 10.85 μg/cotyledon
Accumulation of soluble carbohydrates in soybean seed coat [4, 13]: 0 μg/seed coat
Accumulation of soluble carbohydrates in soybean axis [4, 14]: 3.86 μg/axis
Accumulation of soluble carbohydrates in soybean cotyledon [4, 14]: 15.22 μg/cotyledon
Accumulation of soluble carbohydrates in soybean seed coat [4, 14]: 0 μg/seed coat
Accumulation of soluble carbohydrates in soybean axis [4, 15]: 7.49 μg/axis
Accumulation of soluble carbohydrates in soybean cotyledon [4, 15]: 72.18 μg/cotyledon
Accumulation of soluble carbohydrates in soybean seed coat [4, 15]: 0 μg/seed coat
Accumulation of soluble carbohydrates in soybean axis [4, 16]: 3.46 μg/axis
Accumulation of soluble carbohydrates in soybean cotyledon [4, 16]: 187.91 μg/cotyledon
Accumulation of soluble carbohydrates in soybean seed coat [4, 16]: 0.54 μg/seed coat
Accumulation of soluble carbohydrates in soybean axis [4, 17]: 7.60 μg/axis
Accumulation of soluble carbohydrates in soybean cotyledon [4, 17]: 77.60 μg/cotyledon
Accumulation of soluble carbohydrates in soybean seed coat [4, 17]: 0 μg/seed coat
Accumulation of soluble carbohydrates in soybean axis ([4]; 3 days transport of sucrose (1%) and D-pinitol (50 mM), after 14 days slow drying, Rep 2): 11.19 μg/axis

Reference: patent US9926581B2, “Fagopyritol synthase genes and uses thereof” (Cornell Research Foundation, Inc., priority 2002, dated 2018)
